Measurements reported in paper PMC9563463, “PARP1-MGMT complex underpins pathway crosstalk in O^6-methylguanine repair” (Journal of Hematology & Oncology, 2022).
Results are given in words; binding and its absence hold for the method and conditions named. In cells and extracts the contact can be indirect. Some entries that bind do so weakly or less than the wild type.

Sequences of proteins named here, by UniProt entry; tags and fusion partners are left off.
UniProt P09874: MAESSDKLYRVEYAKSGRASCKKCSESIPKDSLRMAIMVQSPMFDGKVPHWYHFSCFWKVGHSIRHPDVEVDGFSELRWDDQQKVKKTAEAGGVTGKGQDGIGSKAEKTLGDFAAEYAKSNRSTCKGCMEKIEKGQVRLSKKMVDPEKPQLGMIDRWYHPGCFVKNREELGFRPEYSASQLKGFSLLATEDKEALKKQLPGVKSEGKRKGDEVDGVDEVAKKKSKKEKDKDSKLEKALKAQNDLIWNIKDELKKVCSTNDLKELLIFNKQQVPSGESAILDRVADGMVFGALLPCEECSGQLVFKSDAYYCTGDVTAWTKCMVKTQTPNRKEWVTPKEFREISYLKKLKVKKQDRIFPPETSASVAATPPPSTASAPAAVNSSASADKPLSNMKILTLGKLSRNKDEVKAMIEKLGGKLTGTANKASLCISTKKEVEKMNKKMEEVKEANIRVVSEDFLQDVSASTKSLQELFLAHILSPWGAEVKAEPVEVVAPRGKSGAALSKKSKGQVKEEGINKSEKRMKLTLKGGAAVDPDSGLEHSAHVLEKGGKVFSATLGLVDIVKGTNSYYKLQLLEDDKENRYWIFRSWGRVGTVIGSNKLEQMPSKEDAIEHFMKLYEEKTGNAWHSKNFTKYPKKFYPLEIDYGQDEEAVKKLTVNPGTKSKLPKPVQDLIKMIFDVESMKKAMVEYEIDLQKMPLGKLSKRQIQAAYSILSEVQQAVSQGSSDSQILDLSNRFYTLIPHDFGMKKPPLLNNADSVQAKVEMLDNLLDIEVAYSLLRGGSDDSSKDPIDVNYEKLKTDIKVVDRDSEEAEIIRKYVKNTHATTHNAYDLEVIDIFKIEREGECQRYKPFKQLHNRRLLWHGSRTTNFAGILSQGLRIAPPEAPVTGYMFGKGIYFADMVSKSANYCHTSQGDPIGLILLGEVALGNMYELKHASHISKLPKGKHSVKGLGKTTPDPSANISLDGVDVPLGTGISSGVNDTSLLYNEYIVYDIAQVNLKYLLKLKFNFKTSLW
UniProt P04406: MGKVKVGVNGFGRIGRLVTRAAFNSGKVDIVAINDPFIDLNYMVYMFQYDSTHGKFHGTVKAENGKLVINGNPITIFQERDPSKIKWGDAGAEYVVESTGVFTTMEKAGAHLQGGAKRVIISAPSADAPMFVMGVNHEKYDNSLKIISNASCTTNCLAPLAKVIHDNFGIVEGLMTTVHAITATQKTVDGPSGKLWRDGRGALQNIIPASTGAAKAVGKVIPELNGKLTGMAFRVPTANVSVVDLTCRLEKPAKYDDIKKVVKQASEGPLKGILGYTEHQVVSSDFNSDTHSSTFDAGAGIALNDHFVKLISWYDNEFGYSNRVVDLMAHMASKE
UniProt Q9UGN5: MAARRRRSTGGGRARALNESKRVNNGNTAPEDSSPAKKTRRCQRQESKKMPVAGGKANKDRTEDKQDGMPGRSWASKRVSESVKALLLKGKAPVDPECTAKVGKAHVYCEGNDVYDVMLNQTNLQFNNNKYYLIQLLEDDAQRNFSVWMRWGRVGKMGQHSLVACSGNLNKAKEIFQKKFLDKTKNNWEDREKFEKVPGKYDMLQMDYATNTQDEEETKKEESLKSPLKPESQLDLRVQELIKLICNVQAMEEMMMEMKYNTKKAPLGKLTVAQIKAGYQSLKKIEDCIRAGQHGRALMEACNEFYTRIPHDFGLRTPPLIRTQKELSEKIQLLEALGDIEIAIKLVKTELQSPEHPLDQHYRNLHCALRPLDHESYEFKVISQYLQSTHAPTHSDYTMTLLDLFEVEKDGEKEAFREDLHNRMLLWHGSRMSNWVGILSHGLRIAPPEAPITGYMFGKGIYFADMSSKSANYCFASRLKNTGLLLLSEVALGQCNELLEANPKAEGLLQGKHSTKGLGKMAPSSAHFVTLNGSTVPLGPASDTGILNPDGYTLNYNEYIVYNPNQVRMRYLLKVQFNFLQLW

Molecular target: poly(ADP) ribose polymerase 1 (PARP1), endogenous (human (endogenous in EW-8)) (UniProt P09874)
Experiment: co-IP; EW-8 cells with or without temozolomide (1 mM, 2 h); PARP1 pulled down, immunoblotting; IgG control

Row | binding | Substance
1 | no binding | GAPDH, endogenous (from UniProt P04406 1-335)
2 | binds | PARP2, endogenous (from UniProt Q9UGN5 1-583)
